Measurements from US20240383900A1, “SUBSTITUTED PYRAZOLO [1,5-A]PYRIMIDINE-7-AMINE COMPOUNDS AS CDK INHIBITORS AND THEIR THERAPEUTIC USE” (Carrick Therapeutics Limited, priority 2021, published 2024).

System: A673 cells
Experiment: Cytotoxicity in A673 cells (Cell Titer Glo viability)
Format: cell-based
Conditions: Homo sapiens, read-out: Cellular Potency IC50 (nM) (in A673 cells)
Protocol: Cells were plated in 96-well plates at a density of […] viable cells per well in 200 μL fully supplemented growth medium (DMEM+10% heat inactivated foetal bovine serum) and incubated for 24 hours in standard tissue culture conditions. Compounds, including MLN4924, were solubilised in DMSO and then diluted in fully supplemented growth medium at 2× their final assay concentration such that the final DMSO concentration was 0.1%. Growth medium in the assay plates was replaced with 50 μL of growth medium containing 2×MLN4924 (final assay concentration: 30 nM, where tested) or vehicle only and 50 μL of growth medium containing a 2× compound concentration series or vehicle only such that each compound was at 1× final assay concentration in 100 μL.
Cells were then incubated for 72 hours in standard tissue culture conditions before viability was assessed using 50 μL Cell Titer Glo reagent (Promega) per well and luminescence measured on an EnVision plate reader. Data were normalised to vehicle control (100%) and cells treated with 0.1% Triton x-100 for 1 hour before viability measurement (0%; full cell kill). […] Viability curves generated in the presence of MLN4924 were normalised and fixed to controls treated with MLN4924.

CCc1cnn2c(NCc3ccc[n+]([O-])c3)cc(N3CCCC[C@H]3CCO)nc12 [Dinaciclib, reference compound]
IC50: 4.9 nM
